For seven molecules, binding results are on record in publication doi:10.1101/2025.08.29.668156.

Sequences of proteins named here, by UniProt entry; tags and fusion partners are left off. Residues count along the entry.
UniProt P07737: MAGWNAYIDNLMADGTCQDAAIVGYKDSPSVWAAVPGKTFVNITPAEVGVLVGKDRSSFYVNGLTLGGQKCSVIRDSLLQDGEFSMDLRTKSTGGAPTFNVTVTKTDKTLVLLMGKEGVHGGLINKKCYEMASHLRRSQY
UniProt P50552: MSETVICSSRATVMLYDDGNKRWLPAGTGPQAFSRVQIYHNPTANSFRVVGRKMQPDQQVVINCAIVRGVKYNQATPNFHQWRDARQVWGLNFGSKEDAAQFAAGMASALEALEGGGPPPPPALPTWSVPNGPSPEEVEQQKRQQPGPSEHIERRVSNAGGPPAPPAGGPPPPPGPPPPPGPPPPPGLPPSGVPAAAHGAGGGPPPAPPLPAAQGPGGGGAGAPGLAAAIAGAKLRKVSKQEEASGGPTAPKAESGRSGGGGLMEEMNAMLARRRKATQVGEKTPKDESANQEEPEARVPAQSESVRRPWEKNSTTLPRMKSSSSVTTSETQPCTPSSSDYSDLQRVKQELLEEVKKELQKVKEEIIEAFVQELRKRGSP
UniProt P02545: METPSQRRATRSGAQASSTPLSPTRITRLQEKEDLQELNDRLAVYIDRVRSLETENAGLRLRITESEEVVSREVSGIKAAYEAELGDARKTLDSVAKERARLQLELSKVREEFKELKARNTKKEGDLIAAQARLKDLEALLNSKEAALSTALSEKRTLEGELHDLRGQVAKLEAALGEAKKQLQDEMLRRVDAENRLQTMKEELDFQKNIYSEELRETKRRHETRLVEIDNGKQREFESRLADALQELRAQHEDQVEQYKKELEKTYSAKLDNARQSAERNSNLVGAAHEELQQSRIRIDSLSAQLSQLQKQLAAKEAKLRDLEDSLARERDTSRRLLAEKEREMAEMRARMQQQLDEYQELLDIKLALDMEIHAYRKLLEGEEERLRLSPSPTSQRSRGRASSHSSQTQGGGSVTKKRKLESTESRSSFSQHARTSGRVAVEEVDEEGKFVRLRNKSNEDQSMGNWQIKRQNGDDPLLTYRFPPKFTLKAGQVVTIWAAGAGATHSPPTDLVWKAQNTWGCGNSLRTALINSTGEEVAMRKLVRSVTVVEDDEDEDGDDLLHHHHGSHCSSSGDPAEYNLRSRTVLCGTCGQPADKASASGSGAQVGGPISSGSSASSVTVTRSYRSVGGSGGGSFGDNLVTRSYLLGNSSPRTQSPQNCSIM
UniProt P61604: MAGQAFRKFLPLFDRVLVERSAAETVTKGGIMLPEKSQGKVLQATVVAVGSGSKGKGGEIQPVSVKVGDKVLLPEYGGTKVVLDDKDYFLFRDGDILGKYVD
UniProt P28331, residues 24-727: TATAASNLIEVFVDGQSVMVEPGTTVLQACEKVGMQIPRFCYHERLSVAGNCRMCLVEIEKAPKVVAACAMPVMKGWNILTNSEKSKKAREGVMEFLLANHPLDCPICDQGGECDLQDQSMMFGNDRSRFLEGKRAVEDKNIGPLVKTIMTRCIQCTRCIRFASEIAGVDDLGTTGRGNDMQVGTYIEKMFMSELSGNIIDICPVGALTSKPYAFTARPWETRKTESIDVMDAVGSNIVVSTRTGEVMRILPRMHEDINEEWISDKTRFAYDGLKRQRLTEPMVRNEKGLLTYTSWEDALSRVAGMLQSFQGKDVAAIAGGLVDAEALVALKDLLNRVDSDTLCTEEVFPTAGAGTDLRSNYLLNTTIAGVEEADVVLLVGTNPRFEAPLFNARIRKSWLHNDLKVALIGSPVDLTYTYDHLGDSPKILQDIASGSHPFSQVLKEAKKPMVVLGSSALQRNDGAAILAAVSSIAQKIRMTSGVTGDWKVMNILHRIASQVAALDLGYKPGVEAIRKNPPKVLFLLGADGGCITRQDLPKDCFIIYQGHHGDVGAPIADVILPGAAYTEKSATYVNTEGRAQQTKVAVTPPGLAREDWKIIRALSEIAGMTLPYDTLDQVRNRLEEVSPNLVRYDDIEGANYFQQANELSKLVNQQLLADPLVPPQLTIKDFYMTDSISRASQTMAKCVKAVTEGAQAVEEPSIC

Common to all, as to test: proximity labelling
For assay [1], the target named is miniTurbo-PFN1 (UniProt P07737).
The target of assay [2] is miniTurbo-VASP (UniProt P50552).
Assay [3] addresses miniTurbo-PFN1 (UniProt P07737). This is another data set of the same source.
The target in assay [4] is miniTurbo-VASP (UniProt P50552). This is another data set of the same source.
Assay [5] addresses LMNA N-terminally fused to AirID (UniProt P02545).
The target of assay [6] is LMNA N-terminally fused to BASU (UniProt P02545).
Assay [7] concerns the target LMNA N-terminally fused to BioID2 (UniProt P02545).
Assay [8] deals with LMNA N-terminally fused to BirA* (UniProt P02545).
Assay [9] has as its target LMNA N-terminally fused to TurboID (UniProt P02545).
Assay [10] concerns the target LMNA N-terminally fused to lbmicroID2 (UniProt P02545).
Assay [11] deals with LMNA N-terminally fused to microID (UniProt P02545).
The target in assay [12] is LMNA N-terminally fused to microID2 (UniProt P02545).
For assay [13], the target named is LMNA N-terminally fused to miniTurbo (UniProt P02545).
Assay [14] deals with LMNA N-terminally fused to ultraID (UniProt P02545).

Like-named read-outs stand apart in the source and are kept apart here. These are yes or no findings as the source states them, for the method shown. In cells and extracts the contact can be indirect. A yes stands for co-enrichment or nearness to the bait. Other partners may have been found. For some assays here: No binding means not detected with the bait.

Turning to HSPE1 (from UniProt P61604 1-102), the binding entry with miniTurbo-PFN1 [1] and with miniTurbo-VASP [2] was “no binding” in each case.

NDUFS1 (from UniProt P28331 24-727): the binding result in the assay with miniTurbo-PFN1 [1] and in the assay with miniTurbo-VASP [2] was “no binding” throughout.

B1: IARS2 (protein, UniProt Q9NSE4 49-1012)
chain: SNHQPNSNSGRYRDTVLLPQTSFPMKLLGRQQPDTELEIQQKCGFSELYSWQRERKVKTEFCLHDGPPYANGDPHVGHALNKILKDIANRFHMMNGSKIHFVPGWDCHGLPIEIKVLSELGREAQNLSAMEIRKKARSFAKAAIEKQKSAFIRWGIMADWNNCYYTFDGKYEAKQLRTFYQMYDKGLVYRSYKPVFWSPSSRTALAEAELEYNPEHVSRSIYVKFPLLKPSPKLASLIDGSSPVSILVWTTQPWTIPANEAVCYMPESKYAVVKCSKSGDLYVLAADKVASVASTLETTFETISTLSGVDLENGTCSHPLIPDKASPLLPANHVTMAKGTGLVHTAPAHGMEDYGVASQHNLPMDCLVDEDGVFTDVAGPELQNKAVLEEGTDVVIKMLQTAKNLLKEEKLVHSYPYDWRTKKPVVIRASKQWFINITDIKTAAKELLKKVKFIPGSALNGMVEMMDRRPYWCISRQRVWGVPIPVFHHKTKDEYLINSQTTEHIVKLVEQHGSDIWWTLPPEQLLPKEVLSEVGGPDALEYVPGQDILDIWFDSGTSWSYVLPGPDQRADLYLEGKDQLGGWFQSSLLTSVAARKRAPYKTVIVHGFTLGEKGEKMSKSLGNVIHPDVVVNGGQDQSKEPPYGADVLRWWVADSNVFTEVAIGPSVLNAARDDISKLRNTLRFLLGNVADFNPETDSIPVNDMYVIDQYMLHLLQDLANKITELYKQYDFGKVVRLLRTFYTRELSNFYFSIIKDRLYCEKENDPKRRSCQTALVEILDVIVRSFAPILPHLAEEVFQHIPYIKEPKSVFRTGWISTSSIWKKPGLEEAVESACAMRDSFLGSIPGKNAAEYKVITVIEPGLLFEIIEMLQSEETSSTSQLNELMMASESTLLAQEPREMTADVIELKGKFLINLEGGDIREESSYKVIVMPTTKEKCPRCWKYTAESSDTLCPRCAEVVSGK
Consider B1, for which the binding entry in the assay with miniTurbo-PFN1 [3] and with miniTurbo-VASP [4] was “no binding” throughout.

B2: LMNB2 (protein, UniProt Q03252 1-620)
chain: MSPPSPGRRREQRRPRAAATMATPLPGRAGGPATPLSPTRLSRLQEKEELRELNDRLAHYIDRVRALELENDRLLLKISEKEEVTTREVSGIKALYESELADARRVLDETARERARLQIEIGKLRAELDEVNKSAKKREGELTVAQGRVKDLESLFHRSEVELAAALSDKRGLESDVAELRAQLAKAEDGHAVAKKQLEKETLMRVDLENRCQSLQEELDFRKSVFEEEVRETRRRHERRLVEVDSSRQQEYDFKMAQALEELRSQHDEQVRLYKLELEQTYQAKLDSAKLSSDQNDKAASAAREELKEARMRLESLSYQLSGLQKQASAAEDRIRELEEAMAGERDKFRKMLDAKEQEMTEMRDVMQQQLAEYQELLDVKLALDMEINAYRKLLEGEEERLKLSPSPSSRVTVSRATSSSSGSLSATGRLGRSKRKRLEVEEPLGSGPSVLGTGTGGSGGFHLAQQASASGSVSIEEIDLEGKFVQLKNNSDKDQSLGNWRIKRQVLEGEEIAYKFTPKYILRAGQMVTVWAAGAGVAHSPPSTLVWKGQSSWGTGESFRTVLVNADGEEVAMRTVKKSSVMRENENGEEEEEEAEFGEEDLFHQQGDPRTTSRGCYVM
With B2, the binding result in assay [5], in assay [6], in assay [7], in assay [8], in assay [9] and in [10] was “binds” each time. Besides, the binding entry in assay [11], in assay [12], in [13] and in assay [14] was “binds” in each case.

B3: FAM169A (protein, UniProt Q9Y6X4 1-670)
chain: MAFPVDMLENCSHEELENSAEDYMSDLRCGDPENPECFSLLNITIPISLSNVGFVPLYGGDQTQKILALFAPEDSLTAVALYLADQWWAIDDIVKTSVPSREGLKQVSTLGERVVLYVLNRIIYRKQEMERNEIPFLCHSSTDYAKILWKKGEAIGFYSVKPTGSICASFLTQSYQLPVLDTMFLRKKYRGKDFGLHMLEDFVDSFTEDALGLRYPLSSLMYTACKQYFEKYPGDHELLWEVEGVGHWYQRIPVTRALQREALKILALSQNEPKRPMSGEYGPASVPEYEARTEDNQSSEMQLTIDSLKDAFASTSEGHDKTSVSTHTRSGNLKRPKIGKRFQDSEFSSSQGEDEKTSQTSLTASINKLESTARPSESSEEFLEEEPEQRGIEFEDESSDRDARPALETQPQQEKQDGEKESELEPMNGEIMDDSLKTSLITEEEDSTSEVLDEELKLQPFNSSEDSTNLVPLVVESSKPPEVDAPDKTPRIPDSEMLMDEGTSDEKGHMEEKLSLLPRKKAHLGSSDNVATMSNEERSDGGFPNSVIAEFSEEPVSENLSPNTTSSLEDQGEEGVSEPQETSTALPQSSLIEVELEDVPFSQNAGQKNQSEEQSEASSEQLDQFTQSAEKAVDSSSEEIEVEVPVVDRRNLRRKAKGHKGPAKKKAKLT
On to B3, for which the binding result in [5], in assay [6], in assay [7], in assay [8], in assay [9] and in assay [10] was “binds” each time. The binding entry in assay [11], in [12], in assay [13] and in assay [14] was “binds” in each case.

B4: GRSF1 (protein, UniProt Q12849 118-480)
chain: SQESKTTYLEDLPPPPEYELAPSKLEEEVDDVFLIRAQGLPWSCTMEDVLNFFSDCRIRNGENGIHFLLNRDGKRRGDALIEMESEQDVQKALEKHRMYMGQRYVEVYEINNEDVDALMKSLQVKSSPVVNDGVVRLRGLPYSCNEKDIVDFFAGLNIVDITFVMDYRGRRKTGEAYVQFEEPEMANQALLKHREEIGNRYIEIFPSRRNEVRTHVGSYKGKKIASFPTAKYITEPEMVFEEHEVNEDIQPMTAFESEKEIELPKEVPEKLPEAADFGTTSSLHFVHMRGLPFQANAQDIINFFAPLKPVRITMEYSSSGKATGEADVHFETHEDAVAAMLKDRSHVHHRYIELFLNSCPKGK
As for B4, the binding result in the assay with miniTurbo-PFN1 [3] and in the assay with miniTurbo-VASP [4] was “no binding” in each case.

B5: TMEM201 (protein, UniProt Q5SNT2 1-666)
chain: MEGVSALLARCPTAGLAGGLGVTACAAAGVLLYRIARRMKPTHTMVNCWFCNQDTLVPYGNRNCWDCPHCEQYNGFQENGDYNKPIPAQYLEHLNHVVSSAPSLRDPSQPQQWVSSQVLLCKRCNHHQTTKIKQLAAFAPREEGRYDEEVEVYRHHLEQMYKLCRPCQAAVEYYIKHQNRQLRALLLSHQFKRREADQTHAQNFSSAVKSPVQVILLRALAFLACAFLLTTALYGASGHFAPGTTVPLALPPGGNGSATPDNGTTPGAEGWRQLLGLLPEHMAEKLCEAWAFGQSHQTGVVALGLLTCLLAMLLAGRIRLRRIDAFCTCLWALLLGLHLAEQHLQAASPSWLDTLKFSTTSLCCLVGFTAAVATRKATGPRRFRPRRFFPGDSAGLFPTSPSLAIPHPSVGGSPASLFIPSPPSFLPLANQQLFRSPRRTSPSSLPGRLSRALSLGTIPSLTRADSGYLFSGSRPPSQVSRSGEFPVSDYFSLLSGSCPSSPLPSPAPSVAGSVASSSGSLRHRRPLISPARLNLKGQKLLLFPSPPGEAPTTPSSSDEHSPHNGSLFTMEPPHVPRKPPLQDVKHALDLRSKLERGSACSNRSIKKEDDSSQSSTCVVDTTTRGCSEEAATWRGRFGPSLVRGLLAVSLAANALFTSVFLYQSLR
On to B5, for which the binding entry in assay [5], in [6], in assay [7], in assay [8], in assay [9] and in assay [10] was “binds” each time. Also, the binding result in assay [11], in assay [12], in [13] and in assay [14] was “binds” each time.
